Results as given in US20260166130A1, “PEPTIDE COMPOSITION HAVING ANGIOGENIC ACTIVITY, AND PHARMACEUTICAL COMPOSITION USING SAME AND COSMETIC COMPOSITION USING SAME” (LABTOMEDI CRO CO.,LTD., priority 2022, published 2026).
Not every detail of the peptide structures is certain; ends, links or a residue may be inferred. Some of these results come from one statement about several compounds together. No end group written: not given here.

Assays:
Assay type in all cases: cell-based, human
[1] = system: HUVECs; experiment: Blood vessel (tube) formation assay on Matrigel; details: 4 hours, vs. control; for number of meshes (tube formation): 0.5 μM; for number of master junctions (tube formation): second peptide except at the 2.0 μM concentration
Experimental: HUVECs (20,000 cells/well) were seed on a layer of previously polymerized Matrigel and treated with or without the first peptide and the second peptide. The Matrigel culture was incubated at 37° C. After 4 hours, changes in cell morphology were captured using a phase-contrast microscope (×40). Each sample was assayed in duplicate, and independent experiments were repeated three times. *P<0.05, **P,0.01, ***P<0.001 (vs. control).
HUVECs (20,000 cells/well) were seeded on a layer of previously polymerized Matrigel, treated with the visfatin-derived peptides, and then incubated in a 5% CO2 incubator at 37° C. for 4 hours. Then, changes in the cell morphology were observed and photographed using a phase-contrast microscope at 40× magnification. Each sample was assayed in duplicate, and independent experiments were repeated three times. Angiogenesis was analyzed with ImageJ software using an angiogenesis analyzer (Bethesda, MD, USA).

[2] = system: HUVECs; experiment: Cell migration (scratch wound) assay; details: 18 hours
[3] = system: HUVECs; experiment: Cell invasion using Matrigel-coated transwell; details: 24 hours

Sequence | number of meshes (tube formation) [1] | number of master junctions (tube formation) [1] | increase in cell migration compared to the control group ([2]; 2.0 μM) | increase in cell invasion compared to the control group or the visfatin-treated group ([3]; concentration of 2.0 μM) | increase in cell migration compared to the control group ([2]; 0.5 μM) | increase in cell invasion compared to the control group or the visfatin-treated group ([3]; concentration of 0.5 µM)
EYKLHDFGYRGV [Peptide 2, EYKLHDFGYRGV] | significantly increased | significantly increased | two-fold increase | more than 2 fold |  | 
LEYKLHDFGY [Peptide 1, LEYKLHDFGY] | significantly increased | significantly increased |  |  | two-fold increase | more than 2 fold
